We go through 3 molecules from paper PMC10713595.

The chains behind the UniProt entries cited, without tags or fusion partners.
UniProt P31749: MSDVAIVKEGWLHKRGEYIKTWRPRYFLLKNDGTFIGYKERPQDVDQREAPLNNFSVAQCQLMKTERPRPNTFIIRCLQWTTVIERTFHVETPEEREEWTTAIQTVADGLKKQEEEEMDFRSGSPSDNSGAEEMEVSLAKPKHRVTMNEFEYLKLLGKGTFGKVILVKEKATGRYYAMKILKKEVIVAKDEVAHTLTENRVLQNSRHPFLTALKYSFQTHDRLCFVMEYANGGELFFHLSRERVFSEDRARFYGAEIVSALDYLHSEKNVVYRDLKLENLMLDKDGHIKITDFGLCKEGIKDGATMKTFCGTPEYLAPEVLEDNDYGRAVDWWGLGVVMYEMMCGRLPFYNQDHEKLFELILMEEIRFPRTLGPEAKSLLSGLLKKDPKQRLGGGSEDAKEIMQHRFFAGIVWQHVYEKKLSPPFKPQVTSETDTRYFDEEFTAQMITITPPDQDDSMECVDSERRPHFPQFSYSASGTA

These are yes or no findings as the source states them, for the method shown. Binding seen in cells or lysates may run through a third protein. Some results given as binding are weak or reduced against the parent protein; the word gives no strength. For some assays here: Where a sequence is shown, tags or fusion partners need not be part of it.

The target in experiment [1] is T1, endogenous Programmed cell death 4 (PDCD4) (human (endogenous in HCT116 and HEK293)) (UniProt Q53EL6).
T1 sequence: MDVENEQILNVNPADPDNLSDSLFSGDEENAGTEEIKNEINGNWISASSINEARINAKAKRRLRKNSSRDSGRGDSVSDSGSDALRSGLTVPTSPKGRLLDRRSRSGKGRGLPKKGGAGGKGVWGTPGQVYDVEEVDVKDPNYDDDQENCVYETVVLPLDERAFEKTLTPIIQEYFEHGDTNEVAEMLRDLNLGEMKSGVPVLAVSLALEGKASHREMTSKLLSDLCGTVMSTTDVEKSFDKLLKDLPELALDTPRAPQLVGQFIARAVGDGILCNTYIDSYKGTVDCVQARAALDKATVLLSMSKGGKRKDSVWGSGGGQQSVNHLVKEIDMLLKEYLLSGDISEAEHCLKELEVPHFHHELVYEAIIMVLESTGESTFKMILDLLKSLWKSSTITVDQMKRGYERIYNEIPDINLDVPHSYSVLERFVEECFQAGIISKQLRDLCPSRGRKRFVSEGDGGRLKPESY
Description: co-IP; endogenous proteins; IP lysis buffer (25 mM Tris pH 7.6, 150 mM NaCl, 1% Nonidet P-40, 1 mM EDTA), antibody 4 h, protein A/G agarose overnight, washed thrice with PBS, western blot; HCT116 also under serum starvation or 2DG (5 mM) and oligomycin (2.5 uM) for four hours; HEK293 Atg7-WT and Atg7-KO. (In general: A western blot detects proteins with antibodies after separation by electrophoresis.)

The next experiment deals with T2, GFP-Atg7 (UniProt O95352).
T2 sequence: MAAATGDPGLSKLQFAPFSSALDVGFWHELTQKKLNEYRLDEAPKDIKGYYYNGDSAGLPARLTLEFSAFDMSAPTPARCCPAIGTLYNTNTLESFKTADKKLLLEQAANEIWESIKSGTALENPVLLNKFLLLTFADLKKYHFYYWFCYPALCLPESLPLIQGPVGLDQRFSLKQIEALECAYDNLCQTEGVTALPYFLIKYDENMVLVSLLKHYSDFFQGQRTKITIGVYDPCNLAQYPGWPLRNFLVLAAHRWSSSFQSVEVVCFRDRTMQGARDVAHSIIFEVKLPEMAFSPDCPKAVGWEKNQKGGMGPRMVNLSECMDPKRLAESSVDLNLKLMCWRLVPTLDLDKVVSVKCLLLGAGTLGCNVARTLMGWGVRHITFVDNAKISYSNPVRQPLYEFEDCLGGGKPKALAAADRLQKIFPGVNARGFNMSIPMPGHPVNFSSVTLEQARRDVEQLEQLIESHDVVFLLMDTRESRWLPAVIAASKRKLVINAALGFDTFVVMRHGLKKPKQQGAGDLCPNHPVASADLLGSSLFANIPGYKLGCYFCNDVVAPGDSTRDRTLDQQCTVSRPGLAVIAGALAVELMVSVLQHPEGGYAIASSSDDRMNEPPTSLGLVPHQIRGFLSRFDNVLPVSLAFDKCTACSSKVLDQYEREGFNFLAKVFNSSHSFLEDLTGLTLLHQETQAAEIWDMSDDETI
In words: co-IP; HEK293 or HEK293 Atg7-KO cells transfected with GFP-Atg7, GFP-Atg7 D476AQ398A or control vector and the indicated plasmids; with or without 2DG (5 mM) and oligomycin (2.5 uM) for four hours; western blot.

Experiment [2] concerns the target T3, 3*Flag-PDCD4 expressed in HEK293 cells (UniProt Q53EL6).
T3 sequence: T1 sequence
The description is as above.

Experiment [3] deals with T4, endogenous Atg7 (autophagy-related gene 7) (human (endogenous in HCT116)) (UniProt O95352).
T4 sequence: T2 sequence
Description: co-IP; endogenous proteins; IP lysis buffer (25 mM Tris pH 7.6, 150 mM NaCl, 1% Nonidet P-40, 1 mM EDTA), antibody 4 h, protein A/G agarose overnight, washed thrice with PBS, western blot; HCT116 also under serum starvation or 2DG (5 mM) and oligomycin (2.5 uM) for four hours; HEK293 Atg7-WT and Atg7-KO.

Another experiment addresses T5, GST-fused Atg7 protein (UniProt O95352).
T5 sequence: T2 sequence
In words: pull-down; GST fusion protein on GST sepharose beads incubated with in vitro translated 3*Flag protein for four hours, washed thrice with PBS, western blot; only the target purified.

Regarding “endogenous AKT (from UniProt P31749 1-480) (enzyme)”, the binding result (in experiment [1]; with GFP-Atg7; in experiment [2]) was “binds” throughout.

B1: endogenous Programmed cell death 4 (PDCD4) (protein, UniProt Q53EL6 1-469)
chain: T1 sequence
B1: the binding result in experiment [3] is listed as “binds”.

B2: in vitro translated 3*Flag-PDCD4 (protein, UniProt Q53EL6 1-469)
chain: T1 sequence
B2: the binding result in the experiment with GST-fused Atg7 protein is recorded as “binds”.
